The other results are listed elsewhere or left out.
Assays:
Experiment in all cases: log2 fold change, soluble protein after heating vs DMSO (PISA); higher = thermal stabilisation; K562 lysate, 10 uM; active = over 0.2 and 3.5 SD of the protein, either way, in both replicates (recomputed)
nilotinib = compound: Cc1cn(-c2cc(NC(=O)c3ccc(C)c(Nc4nccc(-c5cccnc5)n4)c3)cc(C(F)(F)F)c2)cn1 [nilotinib]
Procedure, shortened: (§1)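 Following dounce homogenisation of K562 pellets in PBS pH 7.4 with 1 mM MgCl2, crude extract at 1 mg/mL protein was incubated for 30 min with 10 μM compound. Aliquots were then heated for 3 min over 48°C-58°C and pooled, NP-40 was added to 0.5% at 4°C, and soluble protein was recovered as the supernatant at 21,000xg for 90 min. Channel-sum-equalised TMTpro 16plex LC-MS/MS quantified this protein. Each value, from duplicates, is a log-two fold change in thermal stability relative to solvent controls.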

Protein sequences, listed by entry. Tags and fused reporters are not part of them. Lines headed by an entry give the natural chain unless they say otherwise; changes in a name come on top.
UniProt P27540, whole entry, looked up: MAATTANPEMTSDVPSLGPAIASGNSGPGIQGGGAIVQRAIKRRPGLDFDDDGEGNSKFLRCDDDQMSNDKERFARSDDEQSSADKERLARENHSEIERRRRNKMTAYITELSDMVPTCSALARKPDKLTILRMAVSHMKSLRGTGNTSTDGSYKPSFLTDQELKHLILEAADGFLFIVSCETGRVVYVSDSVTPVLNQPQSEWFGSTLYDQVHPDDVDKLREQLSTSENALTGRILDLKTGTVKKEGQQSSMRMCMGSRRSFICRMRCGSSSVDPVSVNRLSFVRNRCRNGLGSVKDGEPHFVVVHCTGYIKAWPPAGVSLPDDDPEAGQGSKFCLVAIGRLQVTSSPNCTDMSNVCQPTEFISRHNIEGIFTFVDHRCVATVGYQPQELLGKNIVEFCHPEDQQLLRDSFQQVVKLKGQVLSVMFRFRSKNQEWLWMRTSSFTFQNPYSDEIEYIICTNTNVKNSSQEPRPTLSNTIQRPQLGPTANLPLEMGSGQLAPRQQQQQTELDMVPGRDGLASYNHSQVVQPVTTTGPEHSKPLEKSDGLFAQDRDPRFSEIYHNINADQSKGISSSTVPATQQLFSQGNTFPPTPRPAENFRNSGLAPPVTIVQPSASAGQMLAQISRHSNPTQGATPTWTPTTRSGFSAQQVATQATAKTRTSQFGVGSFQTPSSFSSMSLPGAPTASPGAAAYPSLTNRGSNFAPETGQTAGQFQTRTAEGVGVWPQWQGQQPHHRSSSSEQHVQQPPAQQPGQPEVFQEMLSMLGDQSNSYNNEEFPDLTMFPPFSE
UniProt P07741: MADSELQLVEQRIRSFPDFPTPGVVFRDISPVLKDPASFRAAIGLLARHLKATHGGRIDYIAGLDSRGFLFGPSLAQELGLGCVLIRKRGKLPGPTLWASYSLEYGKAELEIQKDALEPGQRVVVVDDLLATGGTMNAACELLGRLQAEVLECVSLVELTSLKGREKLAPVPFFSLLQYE
UniProt P10398: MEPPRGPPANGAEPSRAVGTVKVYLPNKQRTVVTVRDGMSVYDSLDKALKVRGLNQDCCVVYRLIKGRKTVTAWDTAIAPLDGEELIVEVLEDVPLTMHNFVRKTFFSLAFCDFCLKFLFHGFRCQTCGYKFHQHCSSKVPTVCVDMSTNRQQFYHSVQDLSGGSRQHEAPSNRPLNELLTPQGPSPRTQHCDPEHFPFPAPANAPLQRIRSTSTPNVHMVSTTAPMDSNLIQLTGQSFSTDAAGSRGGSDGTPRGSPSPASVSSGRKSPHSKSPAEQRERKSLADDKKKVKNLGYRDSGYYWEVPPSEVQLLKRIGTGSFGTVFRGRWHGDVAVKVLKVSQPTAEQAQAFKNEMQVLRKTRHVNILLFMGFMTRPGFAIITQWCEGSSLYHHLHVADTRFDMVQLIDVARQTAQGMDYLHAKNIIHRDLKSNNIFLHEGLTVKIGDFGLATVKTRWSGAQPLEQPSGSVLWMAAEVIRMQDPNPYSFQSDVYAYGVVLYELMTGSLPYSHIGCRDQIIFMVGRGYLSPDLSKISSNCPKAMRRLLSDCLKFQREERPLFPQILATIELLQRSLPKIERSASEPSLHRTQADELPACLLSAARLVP
UniProt P15289: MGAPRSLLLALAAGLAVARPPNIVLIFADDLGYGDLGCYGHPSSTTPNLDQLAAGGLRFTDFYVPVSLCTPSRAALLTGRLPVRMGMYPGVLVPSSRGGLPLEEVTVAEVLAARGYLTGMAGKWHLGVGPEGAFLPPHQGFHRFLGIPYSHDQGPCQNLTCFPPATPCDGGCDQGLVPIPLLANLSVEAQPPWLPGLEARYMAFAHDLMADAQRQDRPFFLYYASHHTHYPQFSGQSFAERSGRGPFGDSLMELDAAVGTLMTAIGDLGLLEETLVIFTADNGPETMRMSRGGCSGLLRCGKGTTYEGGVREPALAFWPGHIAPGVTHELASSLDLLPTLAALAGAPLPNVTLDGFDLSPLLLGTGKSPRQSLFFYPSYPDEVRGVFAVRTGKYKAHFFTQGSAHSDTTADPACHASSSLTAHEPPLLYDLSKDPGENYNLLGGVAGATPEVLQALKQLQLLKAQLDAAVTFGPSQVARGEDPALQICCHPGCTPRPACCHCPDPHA
UniProt Q99767, whole entry, looked up: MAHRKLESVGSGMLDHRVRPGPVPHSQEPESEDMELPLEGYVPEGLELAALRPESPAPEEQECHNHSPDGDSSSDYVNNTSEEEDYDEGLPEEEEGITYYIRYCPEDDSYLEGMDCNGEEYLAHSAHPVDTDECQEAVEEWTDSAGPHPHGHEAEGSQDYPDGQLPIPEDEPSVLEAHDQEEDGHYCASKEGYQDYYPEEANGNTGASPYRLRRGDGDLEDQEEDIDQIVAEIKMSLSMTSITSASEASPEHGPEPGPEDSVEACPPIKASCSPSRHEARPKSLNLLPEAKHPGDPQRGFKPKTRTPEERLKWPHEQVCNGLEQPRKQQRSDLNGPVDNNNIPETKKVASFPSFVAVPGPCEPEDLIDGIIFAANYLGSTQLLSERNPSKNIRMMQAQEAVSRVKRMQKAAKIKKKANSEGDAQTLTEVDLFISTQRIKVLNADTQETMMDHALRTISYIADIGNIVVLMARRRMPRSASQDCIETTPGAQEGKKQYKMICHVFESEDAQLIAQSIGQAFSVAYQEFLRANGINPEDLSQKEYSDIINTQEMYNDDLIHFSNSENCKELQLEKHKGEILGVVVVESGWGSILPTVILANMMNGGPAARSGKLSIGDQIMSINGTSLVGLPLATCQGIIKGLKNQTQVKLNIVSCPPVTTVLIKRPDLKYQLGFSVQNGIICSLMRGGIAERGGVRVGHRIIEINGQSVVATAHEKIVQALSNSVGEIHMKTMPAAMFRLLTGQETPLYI
UniProt P15848: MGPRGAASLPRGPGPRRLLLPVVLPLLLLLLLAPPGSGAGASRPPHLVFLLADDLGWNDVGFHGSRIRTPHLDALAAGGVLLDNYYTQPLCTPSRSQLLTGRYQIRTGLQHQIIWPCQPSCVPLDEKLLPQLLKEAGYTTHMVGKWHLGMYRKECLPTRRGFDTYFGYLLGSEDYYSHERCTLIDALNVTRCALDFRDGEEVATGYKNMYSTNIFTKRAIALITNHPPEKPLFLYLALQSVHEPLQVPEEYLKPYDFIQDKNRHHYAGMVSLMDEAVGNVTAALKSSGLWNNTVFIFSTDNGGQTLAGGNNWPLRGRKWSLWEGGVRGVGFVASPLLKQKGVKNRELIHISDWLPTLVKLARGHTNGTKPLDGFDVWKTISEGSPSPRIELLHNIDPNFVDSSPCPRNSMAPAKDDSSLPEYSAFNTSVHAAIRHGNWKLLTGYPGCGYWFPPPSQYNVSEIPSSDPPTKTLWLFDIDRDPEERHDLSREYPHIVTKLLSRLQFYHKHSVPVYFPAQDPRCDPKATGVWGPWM
UniProt Q68EM7: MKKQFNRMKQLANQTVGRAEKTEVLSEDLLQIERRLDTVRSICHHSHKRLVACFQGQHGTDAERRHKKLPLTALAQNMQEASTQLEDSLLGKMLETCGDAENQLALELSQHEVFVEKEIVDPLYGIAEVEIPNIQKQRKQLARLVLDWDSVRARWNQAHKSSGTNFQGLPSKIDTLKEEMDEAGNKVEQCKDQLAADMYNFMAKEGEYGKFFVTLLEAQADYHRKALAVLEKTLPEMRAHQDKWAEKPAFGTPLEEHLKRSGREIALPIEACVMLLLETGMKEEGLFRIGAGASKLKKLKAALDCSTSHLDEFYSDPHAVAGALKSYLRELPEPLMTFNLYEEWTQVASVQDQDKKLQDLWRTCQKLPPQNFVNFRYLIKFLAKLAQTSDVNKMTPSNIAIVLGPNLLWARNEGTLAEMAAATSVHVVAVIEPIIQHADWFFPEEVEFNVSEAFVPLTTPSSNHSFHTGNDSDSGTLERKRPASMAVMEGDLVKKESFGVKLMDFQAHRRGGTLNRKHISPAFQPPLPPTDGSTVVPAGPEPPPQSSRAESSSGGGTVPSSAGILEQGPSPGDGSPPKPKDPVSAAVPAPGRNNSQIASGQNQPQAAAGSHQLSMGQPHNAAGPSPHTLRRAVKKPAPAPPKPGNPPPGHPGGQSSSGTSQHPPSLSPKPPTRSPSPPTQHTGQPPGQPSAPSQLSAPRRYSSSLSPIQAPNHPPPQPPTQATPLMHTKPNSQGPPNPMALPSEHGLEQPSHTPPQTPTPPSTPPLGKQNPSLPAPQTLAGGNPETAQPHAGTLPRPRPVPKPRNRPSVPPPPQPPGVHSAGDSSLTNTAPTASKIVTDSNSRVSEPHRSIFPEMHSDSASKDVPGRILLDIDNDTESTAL
UniProt O43299: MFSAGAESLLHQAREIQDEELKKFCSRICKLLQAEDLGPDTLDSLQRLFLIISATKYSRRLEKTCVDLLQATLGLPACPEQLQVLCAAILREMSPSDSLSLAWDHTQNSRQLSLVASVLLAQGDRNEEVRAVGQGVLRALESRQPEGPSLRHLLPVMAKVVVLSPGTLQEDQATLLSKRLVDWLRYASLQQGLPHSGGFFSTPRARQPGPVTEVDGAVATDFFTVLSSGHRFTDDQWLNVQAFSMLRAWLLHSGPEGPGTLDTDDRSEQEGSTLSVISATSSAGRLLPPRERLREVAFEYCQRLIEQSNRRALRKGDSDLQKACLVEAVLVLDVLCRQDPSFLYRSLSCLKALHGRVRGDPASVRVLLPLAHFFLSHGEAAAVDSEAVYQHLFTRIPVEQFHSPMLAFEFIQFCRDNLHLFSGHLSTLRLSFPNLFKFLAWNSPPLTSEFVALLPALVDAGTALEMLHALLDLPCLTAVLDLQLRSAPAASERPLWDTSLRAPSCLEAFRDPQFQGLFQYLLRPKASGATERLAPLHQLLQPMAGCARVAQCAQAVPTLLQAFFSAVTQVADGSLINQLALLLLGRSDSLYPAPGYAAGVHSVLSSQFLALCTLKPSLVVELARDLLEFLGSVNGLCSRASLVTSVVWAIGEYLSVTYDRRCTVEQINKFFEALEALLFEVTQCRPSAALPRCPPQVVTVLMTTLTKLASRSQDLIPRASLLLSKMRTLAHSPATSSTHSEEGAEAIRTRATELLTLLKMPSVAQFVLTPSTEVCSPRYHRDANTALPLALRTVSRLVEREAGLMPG
UniProt P32121, whole entry, looked up: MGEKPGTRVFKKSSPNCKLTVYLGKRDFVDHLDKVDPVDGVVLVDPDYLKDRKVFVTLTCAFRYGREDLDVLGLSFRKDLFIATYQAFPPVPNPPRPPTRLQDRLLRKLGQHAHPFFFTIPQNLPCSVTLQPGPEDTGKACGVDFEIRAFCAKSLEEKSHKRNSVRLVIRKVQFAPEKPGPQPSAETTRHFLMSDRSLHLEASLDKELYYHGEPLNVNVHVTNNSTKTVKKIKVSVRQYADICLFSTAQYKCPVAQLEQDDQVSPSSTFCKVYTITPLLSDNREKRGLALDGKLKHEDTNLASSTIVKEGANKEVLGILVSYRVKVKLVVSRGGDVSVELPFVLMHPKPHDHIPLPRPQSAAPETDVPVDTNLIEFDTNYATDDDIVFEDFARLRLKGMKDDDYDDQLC
UniProt Q9H0R1: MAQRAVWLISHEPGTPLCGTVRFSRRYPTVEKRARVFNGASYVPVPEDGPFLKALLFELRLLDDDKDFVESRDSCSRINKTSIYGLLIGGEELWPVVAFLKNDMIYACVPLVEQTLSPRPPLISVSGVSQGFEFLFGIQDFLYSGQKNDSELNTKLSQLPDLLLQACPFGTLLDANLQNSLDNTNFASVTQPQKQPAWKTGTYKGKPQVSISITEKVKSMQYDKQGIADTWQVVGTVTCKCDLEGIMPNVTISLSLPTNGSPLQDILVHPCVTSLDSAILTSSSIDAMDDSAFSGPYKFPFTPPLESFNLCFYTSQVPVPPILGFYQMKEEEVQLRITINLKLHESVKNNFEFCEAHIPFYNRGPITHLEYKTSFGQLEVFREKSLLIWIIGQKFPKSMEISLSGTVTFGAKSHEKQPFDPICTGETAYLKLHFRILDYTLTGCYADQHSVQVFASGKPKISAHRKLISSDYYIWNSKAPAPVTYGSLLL
UniProt P52565: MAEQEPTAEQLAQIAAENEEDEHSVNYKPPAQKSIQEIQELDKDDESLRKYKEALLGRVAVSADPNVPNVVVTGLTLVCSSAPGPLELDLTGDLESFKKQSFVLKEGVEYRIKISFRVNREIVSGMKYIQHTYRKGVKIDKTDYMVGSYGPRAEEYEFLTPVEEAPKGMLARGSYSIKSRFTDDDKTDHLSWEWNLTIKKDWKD
UniProt Q92747, whole entry, looked up: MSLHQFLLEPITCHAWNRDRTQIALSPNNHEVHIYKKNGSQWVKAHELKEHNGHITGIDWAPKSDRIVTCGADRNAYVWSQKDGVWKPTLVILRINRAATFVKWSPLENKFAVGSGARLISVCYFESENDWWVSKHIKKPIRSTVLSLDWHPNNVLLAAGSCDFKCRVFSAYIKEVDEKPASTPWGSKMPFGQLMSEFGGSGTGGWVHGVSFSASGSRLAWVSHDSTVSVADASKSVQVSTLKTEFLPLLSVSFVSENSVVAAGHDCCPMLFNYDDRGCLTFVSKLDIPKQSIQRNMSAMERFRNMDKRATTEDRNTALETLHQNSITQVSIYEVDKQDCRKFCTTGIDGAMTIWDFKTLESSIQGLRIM

[1] = compound: Cc1nc(Nc2n[nH]c3c2CN(C(=O)N[C@H](CN(C)C)c2ccccc2)C3(C)C)c2sccc2n1
Procedure, shortened: as §1

dasatinib = compound: Cc1nc(Nc2ncc(C(=O)Nc3c(C)cccc3Cl)s2)cc(N2CCN(CCO)CC2)n1 [dasatinib]
Procedure, shortened: as §1

[2] = compound: Cc1ncc(-c2ccnc(Nc3ccc(S(C)(=O)=O)cc3)n2)n1C(C)C
Procedure, shortened: as §1

[3] = compound: Cn1cc(-c2ccc3c(c2)CCN3C(=O)Cc2cccc(C(F)(F)F)c2)c2c(N)ncnc21
Procedure, shortened: as §1

quisinostat = compound: Cn1cc(CNCC2CCN(c3ncc(C(=O)NO)cn3)CC2)c2ccccc21 [quisinostat]
Procedure, shortened: as §1

tipifarnib = compound: Cn1cncc1[C@@](N)(c1ccc(Cl)cc1)c1ccc2c(c1)c(-c1cccc(Cl)c1)cc(=O)n2C [tipifarnib]
Procedure, shortened: as §1

[4] = compound: NC(=O)Nc1cc(-c2cccc(F)c2)sc1C(=O)N[C@H]1CCCNC1
Procedure, shortened: as §1

[5] = compound: NC(=O)c1cnc(N[C@@H]2CCCC[C@@H]2N)nc1Nc1cccc(-n2nccn2)c1
Procedure, shortened: as §1

[6] = compound: NC1(c2ccc(-c3nc4ccn5c(=O)[nH]nc5c4cc3-c3ccccc3)cc2)CCC1
Procedure, shortened: as §1

[7] = compound: NCC(=O)Nc1ccc(-n2nc(C(F)(F)F)cc2-c2ccc3c(ccc4ccccc43)c2)cc1
Procedure, shortened: as §1

vorinostat = compound: O=C(CCCCCCC(=O)Nc1ccccc1)NO [vorinostat]
Procedure, shortened: as §1

silmitasertib = compound: O=C(O)c1ccc2c(c1)nc(Nc1cccc(Cl)c1)c1ccncc12 [silmitasertib]
Procedure, shortened: as §1

[8] = compound: O=C1NC(=O)C(c2cnc3ccccn23)=C1c1cn2c3c(cc(F)cc13)CN(C(=O)N1CCCCC1)CC2
Procedure, shortened: as §1

entospletinib = compound: c1cn2cc(-c3ccc4cn[nH]c4c3)nc(Nc3ccc(N4CCOCC4)cc3)c2n1 [entospletinib]
Procedure, shortened: as §1

Measured: log2 fold change

ARNT (UniProt P27540)
inactive: nilotinib -0.094 | [1] -0.04 | dasatinib -0.01 | [2] 0.008 | [3] 0.001 | quisinostat -0.052 | tipifarnib -0.07 | [4] 0.019 | [5] -0.028 | [6] 0.007 | [7] 0.051 | vorinostat -0.07 | silmitasertib -0.001 | [8] -0.005 | entospletinib -0.02

ARHGEF7 isoform 5 (UniProt Q14155)
inactive: nilotinib 0.004 | [1] 0.009 | dasatinib -0.022 | [2] 0.013 | [3] 0.005 | quisinostat 0.004 | tipifarnib 0.014 | [4] -0.008 | [5] 0.04 | [6] -0.019 | [7] 0 | vorinostat -0.159 | silmitasertib 0.044 | [8] 0.017 | entospletinib 0.053

APRT (UniProt P07741)
inactive: nilotinib 0.011 | [1] -0.03 | dasatinib 0.006 | [2] 0.023 | [3] 0.007 | quisinostat 0 | tipifarnib 0.007 | [4] -0.021 | [5] 0.018 | [6] -0.002 | [7] 0.001 | vorinostat 0.155 | silmitasertib -0.007 | [8] 0.024 | entospletinib 0.02

ARAF (UniProt P10398)
active: vorinostat -0.487
inactive: nilotinib -0.005 | [1] 0.018 | dasatinib 0.16 | [2] 0.022 | [3] 0.02 | quisinostat -0.069 | tipifarnib -0.023 | [4] 0.011 | [5] 0.018 | [6] -0.012 | [7] -0.072 | silmitasertib -0.023 | [8] 0.019 | entospletinib -0.011

ARSA (UniProt P15289)
inactive: nilotinib 0.012 | [1] -0.007 | dasatinib -0.022 | [2] -0.052 | [3] 0.062 | quisinostat 0.024 | tipifarnib 0.009 | [4] -0.031 | [5] -0.008 | [6] 0 | [7] -0.008 | vorinostat 0.077 | silmitasertib 0.022 | [8] -0.03 | entospletinib -0.084

ARPC2 (UniProt O15144)
inactive: nilotinib -0.031 | [1] 0.013 | dasatinib 0.019 | [2] -0.02 | [3] 0.006 | quisinostat -0.036 | tipifarnib 0.007 | [4] -0.002 | [5] -0.014 | [6] -0.015 | [7] 0.002 | vorinostat 0.136 | silmitasertib -0.02 | [8] -0.03 | entospletinib 0.009

APBA2 (UniProt Q99767)
inactive: nilotinib -0.031 | [1] -0.025 | dasatinib -0.034 | [2] 0.021 | [3] 0.042 | quisinostat -0.021 | tipifarnib 0.041 | [4] 0.063 | [5] 0 | [6] -0.026 | [7] -0.024 | vorinostat -0.096 | silmitasertib 0.023 | [8] 0.02 | entospletinib 0.002

ARSB (UniProt P15848)
inactive: nilotinib 0.043 | [1] -0.052 | dasatinib 0.033 | [2] 0.118 | [3] -0.045 | quisinostat -0.019 | tipifarnib -0.002 | [4] -0.021 | [5] -0.041 | [6] -0.008 | [7] -0.006 | vorinostat 0.094 | silmitasertib 0.034 | [8] 0.01 | entospletinib 0.018

ARHGAP17 (UniProt Q68EM7)
inactive: nilotinib 0.012 | [1] -0.006 | dasatinib -0.031 | [2] -0.019 | [3] 0.008 | quisinostat -0.081 | tipifarnib -0.046 | [4] 0.023 | [5] -0.005 | [6] 0.005 | [7] -0.005 | vorinostat 0.08 | silmitasertib -0.002 | [8] -0.023 | entospletinib -0.014

ARL6IP1 (UniProt Q15041)
inactive: nilotinib 0.053 | [1] 0.057 | dasatinib -0.001 | [2] 0.015 | [3] 0.007 | quisinostat 0.025 | tipifarnib -0.027 | [4] -0.019 | [5] 0.013 | [6] 0.021 | [7] -0.035 | vorinostat 0.044 | silmitasertib 0.002 | [8] -0.047 | entospletinib 0.018

AP5Z1 (UniProt O43299)
inactive: nilotinib -0.029 | [1] 0.267 | dasatinib -0.08 | [2] 0.001 | [3] 0.013 | quisinostat -0.125 | tipifarnib 0.087 | [4] 0.066 | [5] 0.022 | [6] -0.046 | [7] 0.157 | vorinostat 0.037 | silmitasertib -0.018 | [8] 0.09 | entospletinib -0.005

ARFGEF2 (UniProt Q9Y6D5)
inactive: nilotinib 0.004 | [1] 0.012 | dasatinib -0.103 | [2] -0.005 | [3] -0.003 | quisinostat -0.026 | tipifarnib -0.048 | [4] 0.099 | [5] 0.017 | [6] -0.017 | [7] 0.068 | vorinostat -0.166 | silmitasertib 0.002 | [8] 0.007 | entospletinib -0.001

ARPIN isoform 2 (UniProt Q7Z6K5)
inactive: nilotinib 0.009 | [1] 0.014 | dasatinib -0.133 | [2] -0.025 | [3] -0.174 | quisinostat -0.034 | tipifarnib 0.024 | [4] -0.004 | [5] -0.01 | [6] 0.081 | [7] 0.03 | vorinostat -0.099 | silmitasertib 0.039 | [8] -0.011 | entospletinib -0.233

ARRB2 isoform 3 (UniProt P32121)
inactive: nilotinib 0.008 | [1] -0.036 | dasatinib -0.031 | [2] -0.006 | [3] 0.046 | quisinostat -0.064 | tipifarnib 0.014 | [4] -0.011 | [5] 0.006 | [6] 0.022 | [7] 0.074 | vorinostat 0.079 | silmitasertib 0.007 | [8] -0.02 | entospletinib 0.027

APOE (UniProt P02649)
inactive: nilotinib 0 | [1] 0.004 | dasatinib 0.022 | [2] 0.057 | [3] 0.009 | quisinostat -0.017 | tipifarnib -0.02 | [4] 0.077 | [5] 0.017 | [6] -0.009 | [7] -0.011 | vorinostat 0.096 | silmitasertib 0.023 | [8] -0.063 | entospletinib 0.063

AP5M1 (UniProt Q9H0R1)
inactive: nilotinib -0.04 | [1] 0.007 | dasatinib -0.001 | [2] 0.011 | [3] 0.029 | quisinostat -0.08 | tipifarnib 0.024 | [4] 0.039 | [5] -0.016 | [6] 0.092 | [7] 0.058 | vorinostat -0.031 | silmitasertib 0.117 | [8] 0.01 | entospletinib -0.016

ARHGDIA (UniProt P52565)
inactive: nilotinib -0.018 | [1] -0.031 | dasatinib 0.006 | [2] -0.02 | [3] -0.007 | quisinostat -0.022 | tipifarnib 0.013 | [4] -0.006 | [5] -0.001 | [6] -0.023 | [7] 0.013 | vorinostat 0.123 | silmitasertib -0.035 | [8] -0.007 | entospletinib 0.012

APEH (UniProt P13798)
inactive: nilotinib 0.015 | [1] -0.007 | dasatinib -0.003 | [2] -0.006 | [3] 0.014 | quisinostat 0.021 | tipifarnib 0.008 | [4] -0.032 | [5] -0.004 | [6] 0.013 | [7] 0.012 | vorinostat 0.12 | silmitasertib -0.002 | [8] -0.011 | entospletinib 0.011

6 neighbouring records from above, for reference:
ARL6IP1 (UniProt Q15041)
inactive: nilotinib 0.053 | [1] 0.057 | dasatinib -0.001 | [2] 0.015 | [3] 0.007 | quisinostat 0.025 | tipifarnib -0.027 | [4] -0.019 | [5] 0.013 | [6] 0.021 | [7] -0.035 | vorinostat 0.044 | silmitasertib 0.002 | [8] -0.047 | entospletinib 0.018

AP5Z1 (UniProt O43299)
inactive: nilotinib -0.029 | [1] 0.267 | dasatinib -0.08 | [2] 0.001 | [3] 0.013 | quisinostat -0.125 | tipifarnib 0.087 | [4] 0.066 | [5] 0.022 | [6] -0.046 | [7] 0.157 | vorinostat 0.037 | silmitasertib -0.018 | [8] 0.09 | entospletinib -0.005

ARFGEF2 (UniProt Q9Y6D5)
inactive: nilotinib 0.004 | [1] 0.012 | dasatinib -0.103 | [2] -0.005 | [3] -0.003 | quisinostat -0.026 | tipifarnib -0.048 | [4] 0.099 | [5] 0.017 | [6] -0.017 | [7] 0.068 | vorinostat -0.166 | silmitasertib 0.002 | [8] 0.007 | entospletinib -0.001

ARPIN isoform 2 (UniProt Q7Z6K5)
inactive: nilotinib 0.009 | [1] 0.014 | dasatinib -0.133 | [2] -0.025 | [3] -0.174 | quisinostat -0.034 | tipifarnib 0.024 | [4] -0.004 | [5] -0.01 | [6] 0.081 | [7] 0.03 | vorinostat -0.099 | silmitasertib 0.039 | [8] -0.011 | entospletinib -0.233

ARRB2 isoform 3 (UniProt P32121)
inactive: nilotinib 0.008 | [1] -0.036 | dasatinib -0.031 | [2] -0.006 | [3] 0.046 | quisinostat -0.064 | tipifarnib 0.014 | [4] -0.011 | [5] 0.006 | [6] 0.022 | [7] 0.074 | vorinostat 0.079 | silmitasertib 0.007 | [8] -0.02 | entospletinib 0.027

APOE (UniProt P02649)
inactive: nilotinib 0 | [1] 0.004 | dasatinib 0.022 | [2] 0.057 | [3] 0.009 | quisinostat -0.017 | tipifarnib -0.02 | [4] 0.077 | [5] 0.017 | [6] -0.009 | [7] -0.011 | vorinostat 0.096 | silmitasertib 0.023 | [8] -0.063 | entospletinib 0.063

More results

ARPC1B (UniProt O15143)
inactive: nilotinib 0.028 | [1] 0.026 | dasatinib 0.059 | [2] 0.045 | [3] 0.022 | quisinostat 0.001 | tipifarnib -0.007 | [4] -0.024 | [5] -0.036 | [6] -0.002 | [7] -0.01 | vorinostat 0.08 | silmitasertib 0.001 | [8] -0.031 | entospletinib 0.011

APOL2 (UniProt J3KQL8)
inactive: nilotinib 0.034 | [1] -0.07 | dasatinib 0.036 | [2] 0.128 | [3] -0.021 | quisinostat 0.156 | tipifarnib -0.124 | [4] 0.012 | [5] 0.048 | [6] 0.028 | [7] 0.145 | vorinostat -0.042 | silmitasertib 0.068 | [8] 0.052 | entospletinib -0.014

ARPC1A (UniProt Q92747)
inactive: nilotinib -0.007 | [1] 0.037 | dasatinib 0.048 | [2] 0.049 | [3] 0.027 | quisinostat 0.023 | tipifarnib 0 | [4] 0.007 | [5] 0.001 | [6] -0.025 | [7] 0.024 | vorinostat 0.05 | silmitasertib 0.006 | [8] 0.006 | entospletinib -0.002
